# PubChem BioAssay AID1259425, University of Nebraska Medical Center – 2018
# Assay: 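Seek colon cancer weak points whose silencing resembles KSR1 loss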 (primary screen)
# Cells: HCT116 human colon cancer cells
# Reagent: siRNA pool against human genes, 50 nM siRNA
# Measured: 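After 50 nM siRNA pool, branched-DNA assay measures six marker transcripts per well, minus blank, normalised to the geometric mean of two housekeeping transcripts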
# Reading the numbers: BNIP3L mRNA: higher = more BNIP3L transcript after knockdown; NDRG1 mRNA: higher = more NDRG1 transcript after knockdown; BNIP3 mRNA: higher = more BNIP3 transcript after knockdown
# The whole screen tested about 14,000 reagents; this is a random part of them. Further read-outs or replicates are left out here. Not stated in the record: the time to read-out.
The opening 4 entries, ahead of the listing:
Gene,"BNIP3L mRNA, set 1","NDRG1 mRNA, set 1","BNIP3 mRNA, set 1"
RAMP2 (GeneID 10266),0.0615,0.0987,0.328
H1-2 (GeneID 3006),0.183,0.254,0.422
TTN (GeneID 7273),0.0904,0.0408,0.311
KLF13 (GeneID 51621),0.108,0.0635,0.233

The listing, repeating the preview:
Gene,"BNIP3L mRNA, set 1","NDRG1 mRNA, set 1","BNIP3 mRNA, set 1"
RAMP2 (GeneID 10266),0.0615,0.0987,0.328
H1-2 (GeneID 3006),0.183,0.254,0.422
TTN (GeneID 7273),0.0904,0.0408,0.311
KLF13 (GeneID 51621),0.108,0.0635,0.233
TRMT13 (GeneID 54482),0.145,0.17,0.358
APLNR (GeneID 187),0.236,0.315,0.329
COLEC11 (GeneID 78989),0.0683,0.172,0.215
AREL1 (GeneID 9870),0.0846,0.213,0.318
PDAP1 (GeneID 11333),0.118,0.212,0.554
GPAT3 (GeneID 84803),0.117,0.122,0.22
SNX15 (GeneID 29907),0.115,0.132,0.305
MYO1C (GeneID 4641),0.0659,0.126,0.272
EIF4EBP2 (GeneID 1979),0.116,0.0852,0.198
IGF2BP2 (GeneID 10644),0.154,-0.0238,0.568
TECTA (GeneID 7007),0.0444,0.126,0.237
CPNE1 (GeneID 8904),0.14,0.14,0.315
RSPH14 (GeneID 27156),0.0618,0.108,0.262
SH3BGRL2 (GeneID 83699),0.144,0.293,0.228
GFPT1 (GeneID 2673),0.549,0.23,0.809
KCNJ10 (GeneID 3766),0.076,0.39,0.251
PCDHB9 (GeneID 56127),0.0901,0.185,0.297
EGFR (GeneID 1956),0.0704,0.103,0.231
TNFSF4 (GeneID 7292),0.0732,0.122,0.235
LUZP4 (GeneID 51213),0.099,0.576,0.371
LGR4 (GeneID 55366),0.224,0.0989,0.397
ABCB8 (GeneID 11194),0.108,0.513,0.232
NBAS (GeneID 51594),0.203,0.118,0.269
NEB (GeneID 4703),0.0782,0.144,0.491
PIK3CD (GeneID 5293),0.0635,0.107,0.229
KCNMA1 (GeneID 3778),0.251,0.341,0.292
NONO (GeneID 4841),0.202,0.2,0.39
CLNS1A (GeneID 1207),0.0196,0.0629,0.269
CASK (GeneID 8573),0.11,0.0924,0.257
HAUS5 (GeneID 23354),0.103,0.18,0.256
